Drawing on publication PMC4303232, this text covers binding for one substance.

Sequences of proteins named here, by UniProt entry; tags and fusion partners are left off. A change or cut given only in a name is not applied to a line headed by its entry.
UniProt Q15121: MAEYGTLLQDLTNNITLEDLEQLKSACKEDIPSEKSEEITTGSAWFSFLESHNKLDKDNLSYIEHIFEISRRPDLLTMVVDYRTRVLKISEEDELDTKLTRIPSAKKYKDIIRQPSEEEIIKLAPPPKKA
UniProt Q13158: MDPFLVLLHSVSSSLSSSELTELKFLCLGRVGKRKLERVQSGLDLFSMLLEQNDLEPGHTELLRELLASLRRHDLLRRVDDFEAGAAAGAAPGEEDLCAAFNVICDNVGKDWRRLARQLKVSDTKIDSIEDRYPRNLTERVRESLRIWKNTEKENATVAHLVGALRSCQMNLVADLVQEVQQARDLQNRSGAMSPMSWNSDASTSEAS

Test [1] concerns the target Flag-tagged PEA15 S116A mutant (UniProt Q15121). The test can be described thus: co-IP; BT 474 cells stably expressing flag-tagged WT-PEA15 or PEA15-S116A, seeded in methyl cellulose for two days; immunoprecipitated with anti-flag antibody; immunoblot. (In general: Immunoblotting shows a protein as a band on a membrane.)
For test [2], the target named is Flag-tagged wild-type PEA15 (UniProt Q15121). The test is described as above.

Results are given in words; binding and its absence hold for the method and conditions named. In cells and extracts the contact can be indirect. Some entries that bind do so weakly or less than the wild type.

With “Fas-associated death domain protein (FADD), endogenous (from UniProt Q13158 1-208)”, the binding entry in test [1] and in test [2] was “binds” in each case.
